Results as given in paper PMC5226524.
These are yes or no findings as the source states them, for the method shown. In cells and extracts the contact can be indirect. Some entries that bind do so weakly or less than the wild type.

Protein sequences, listed by entry. Tags and fused reporters are not part of them.
UniProt Q53EP0: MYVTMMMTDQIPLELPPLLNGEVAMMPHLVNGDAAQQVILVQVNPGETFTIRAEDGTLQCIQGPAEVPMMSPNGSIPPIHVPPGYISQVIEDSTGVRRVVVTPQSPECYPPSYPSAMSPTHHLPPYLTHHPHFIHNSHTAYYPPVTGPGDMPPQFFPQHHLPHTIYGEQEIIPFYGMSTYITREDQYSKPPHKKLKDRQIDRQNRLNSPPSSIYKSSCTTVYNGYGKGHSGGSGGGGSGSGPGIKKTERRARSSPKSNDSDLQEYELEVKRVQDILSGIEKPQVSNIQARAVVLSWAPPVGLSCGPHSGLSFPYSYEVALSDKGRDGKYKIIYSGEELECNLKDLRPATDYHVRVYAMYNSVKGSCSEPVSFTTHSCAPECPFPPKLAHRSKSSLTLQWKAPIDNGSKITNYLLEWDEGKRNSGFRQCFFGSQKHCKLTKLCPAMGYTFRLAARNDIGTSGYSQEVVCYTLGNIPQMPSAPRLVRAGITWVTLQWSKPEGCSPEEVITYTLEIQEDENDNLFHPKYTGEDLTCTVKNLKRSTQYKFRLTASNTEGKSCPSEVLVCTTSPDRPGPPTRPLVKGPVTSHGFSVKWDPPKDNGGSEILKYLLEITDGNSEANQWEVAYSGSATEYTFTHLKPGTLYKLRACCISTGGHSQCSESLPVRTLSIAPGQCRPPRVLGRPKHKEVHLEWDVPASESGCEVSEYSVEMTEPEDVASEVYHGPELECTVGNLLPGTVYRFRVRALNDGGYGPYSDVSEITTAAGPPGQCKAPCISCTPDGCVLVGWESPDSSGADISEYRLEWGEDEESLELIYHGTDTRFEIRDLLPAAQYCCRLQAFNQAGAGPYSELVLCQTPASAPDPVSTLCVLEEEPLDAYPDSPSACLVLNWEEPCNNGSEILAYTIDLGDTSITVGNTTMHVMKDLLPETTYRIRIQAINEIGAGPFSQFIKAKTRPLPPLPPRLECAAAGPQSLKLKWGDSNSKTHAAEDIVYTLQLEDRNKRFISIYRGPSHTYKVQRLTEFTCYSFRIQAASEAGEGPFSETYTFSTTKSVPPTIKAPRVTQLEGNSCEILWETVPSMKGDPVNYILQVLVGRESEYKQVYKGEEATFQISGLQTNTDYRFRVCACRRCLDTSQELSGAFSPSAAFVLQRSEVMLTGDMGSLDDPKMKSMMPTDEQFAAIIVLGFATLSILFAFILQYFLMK
UniProt P07355: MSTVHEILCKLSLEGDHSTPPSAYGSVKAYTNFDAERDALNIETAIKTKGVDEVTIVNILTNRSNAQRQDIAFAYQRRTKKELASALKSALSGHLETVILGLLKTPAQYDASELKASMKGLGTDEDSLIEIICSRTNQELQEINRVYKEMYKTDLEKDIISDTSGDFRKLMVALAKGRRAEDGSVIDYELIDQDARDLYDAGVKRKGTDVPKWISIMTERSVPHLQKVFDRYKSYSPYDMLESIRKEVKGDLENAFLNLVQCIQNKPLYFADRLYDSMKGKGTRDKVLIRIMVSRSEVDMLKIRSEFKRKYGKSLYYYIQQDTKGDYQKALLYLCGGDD

Molecular target: Flag-FNDC3B, full-length (fibronectin type III domain containing 3B) (human) (UniProt Q53EP0)
Test: co-IP; lysates from Huh7 cells transfected with Flag-FNDC3B, IP with anti-Flag

binding: binds
Substance: phosphorylated annexin A2 (phosphorylated ANXA2) (from UniProt P07355 1-339)
